Some entries share one result that the patent states for a list of compounds.
Assays:
[1] = In vivo pharmacokinetics in mice; conditions: 5 mg/kg i.p. or p.o.
Protocol: Male C57/BL6 mice were used in the study and assessed for a single dose (5 mg/kg) administration. The compounds were prepared in Cremaphor for i.p. and p.o dose routes and in 5% ethanol, 10% Tween-20 and water mix for i.v. route at a final concentration of 1 mg/ml. […] The blood samples were collected in tubes with K2 EDTA anticoagulant and further processed to collect plasma by centrifugation at 3500 rpm at 5° C. for 10 min Samples were further processed in LC/MS to determine the concentration of the compounds. Non-compartmental analysis was performed to obtain the PK parameters using the PKPlus software package (Simulation Plus). The area under the plasma concentration-time curve (AUCint) is calculated from time 0 to infinity where the Cmax is the maximal concentration achieved in plasma and t112 is the terminal elimination half-life. Oral bioavailability was calculated as AUCorailAUC1v*100.

SWELL1 protein = SWELL1 protein (Mus musculus, UniProt Q80WG5); conditions: 3T3-F442A adipocytes, 1 and 10 μM, 4 days

CCCCC1(C2CCCC2)Cc2cc(OCCCCCC(=O)O)c(Cl)c(Cl)c2C1=O (centres unmarked) [SN-406, 6-((2-butyl-6,7-dichloro-2-cyclopentyl-1-oxo-2,3-dihydro-1H-inden-5-yl)oxy)hexanoic acid]
Time plasma concentrations exceed those sufficient for SWELL1 pharmacological chaperone activity (>~100 nM) [1]: 8-12 hours
SWELL1 protein level relative to vehicle-treated controls (SWELL1 protein): 1.5-2.3 fold
